In article PMC11269944:
Results are given in words; binding and its absence hold for the method and conditions named. Binding seen in cells or lysates may run through a third protein. Some binding calls cover weakened binding; strength is not graded here. Where a sequence is shown, tags or fusion partners need not be part of it. Values belong to the molecule of their own block, whether it stands above or below them.

Amino acid sequences for entries named in this document (tags omitted). A change or cut given only in a name is not applied to a line headed by its entry.
UniProt Q9BRT9: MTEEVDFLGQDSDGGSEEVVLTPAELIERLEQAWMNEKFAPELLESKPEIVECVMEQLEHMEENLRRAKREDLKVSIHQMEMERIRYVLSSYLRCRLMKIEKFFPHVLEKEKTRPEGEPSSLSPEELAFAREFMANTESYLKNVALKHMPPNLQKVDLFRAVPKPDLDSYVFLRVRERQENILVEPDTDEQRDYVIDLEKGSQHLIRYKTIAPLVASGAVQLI
UniProt Q14691: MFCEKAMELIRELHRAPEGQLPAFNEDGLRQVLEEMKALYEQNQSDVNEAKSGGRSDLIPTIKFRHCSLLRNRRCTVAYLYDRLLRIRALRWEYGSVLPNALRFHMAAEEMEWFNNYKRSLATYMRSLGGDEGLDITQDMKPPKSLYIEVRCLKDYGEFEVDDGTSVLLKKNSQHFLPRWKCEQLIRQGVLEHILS
UniProt Q9Y248: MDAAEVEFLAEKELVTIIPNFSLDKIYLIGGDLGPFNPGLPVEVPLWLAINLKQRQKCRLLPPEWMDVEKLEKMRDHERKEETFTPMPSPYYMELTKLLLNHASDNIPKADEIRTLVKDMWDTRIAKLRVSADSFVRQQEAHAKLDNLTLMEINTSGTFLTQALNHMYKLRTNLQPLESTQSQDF
UniProt Q9BRX5: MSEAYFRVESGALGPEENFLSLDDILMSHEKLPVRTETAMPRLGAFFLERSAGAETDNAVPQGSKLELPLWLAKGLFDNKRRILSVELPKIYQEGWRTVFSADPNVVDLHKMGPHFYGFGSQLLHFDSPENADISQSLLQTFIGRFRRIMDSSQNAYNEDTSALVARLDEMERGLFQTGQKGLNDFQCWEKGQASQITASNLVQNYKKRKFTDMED

Key:
FLAG-tagged LRR1 (human) = target: T1, FLAG-tagged LRR1 (human) (UniProt Q96L50); test: co-IP; chromatin extracts of FLAG-LRR1 or FLAG-LRR1ΔVHL expressing cells synchronised in S phase by release from DTB; 1 mg chromatin lysate with FLAG M2 beads, 2 h, 4°C; western blotting
T1 sequence: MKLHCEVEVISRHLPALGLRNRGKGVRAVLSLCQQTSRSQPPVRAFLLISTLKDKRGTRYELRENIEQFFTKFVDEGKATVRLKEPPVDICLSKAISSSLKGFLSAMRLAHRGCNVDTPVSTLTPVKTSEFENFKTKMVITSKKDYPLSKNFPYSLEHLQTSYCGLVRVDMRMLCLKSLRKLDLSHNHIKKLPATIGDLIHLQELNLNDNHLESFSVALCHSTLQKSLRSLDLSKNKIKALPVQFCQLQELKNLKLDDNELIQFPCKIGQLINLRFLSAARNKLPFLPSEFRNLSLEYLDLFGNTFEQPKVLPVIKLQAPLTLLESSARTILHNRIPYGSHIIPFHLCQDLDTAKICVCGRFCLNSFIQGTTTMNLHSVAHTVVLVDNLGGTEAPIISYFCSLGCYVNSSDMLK

[1] = target: T2, GINS complex (SLD5, PSF1-3) (human (endogenous in U2OS and HCT116)) (UniProt Q9BRT9+Q14691+Q9Y248+Q9BRX5); test: co-IP; GINS immunoprecipitated (Dynabeads Protein A coated with GINS antibodies, 2 h, 4°C) from S phase (DTB release) chromatin extracts of FLAG-LRR1 or FLAG-LRR1ΔVHL expressing cells; blot for FLAG
[2] = target: T2, GINS complex (SLD5, PSF1-3) (human (endogenous in U2OS and HCT116)); test: co-IP; chromatin extracts of mAC-LRR1 expressing HCT116 cells synchronised in S phase (lovastatin release), treated with p97i (5 μM); immunoprecipitation with GINS antibody on Dynabeads Protein A, 2 h, 4°C

binding (FLAG-tagged LRR1 (human)): binds
Molecule: GINS complex (SLD5, PSF1-3) (from UniProt Q9BRT9 1-223; Q14691 1-196; Q9Y248 1-185; Q9BRX5 1-216)

binding [1]: binds
B1: FLAG-tagged LRR1 (protein, UniProt Q96L50 1-414)
chain: MKLHCEVEVISRHLPALGLRNRGKGVRAVLSLCQQTSRSQPPVRAFLLISTLKDKRGTRYELRENIEQFFTKFVDEGKATVRLKEPPVDICLSKAISSSLKGFLSAMRLAHRGCNVDTPVSTLTPVKTSEFENFKTKMVITSKKDYPLSKNFPYSLEHLQTSYCGLVRVDMRMLCLKSLRKLDLSHNHIKKLPATIGDLIHLQELNLNDNHLESFSVALCHSTLQKSLRSLDLSKNKIKALPVQFCQLQELKNLKLDDNELIQFPCKIGQLINLRFLSAARNKLPFLPSEFRNLSLEYLDLFGNTFEQPKVLPVIKLQAPLTLLESSARTILHNRIPYGSHIIPFHLCQDLDTAKICVCGRFCLNSFIQGTTTMNLHSVAHTVVLVDNLGGTEAPIISYFCSLGCYVNSSDMLK

binding [2]: binds
B2: mAC-LRR1 (endogenous LRR1 tagged N-terminally with mini AID tag fused to mClover) (protein, UniProt Q96L50 1-414)
chain: MKLHCEVEVISRHLPALGLRNRGKGVRAVLSLCQQTSRSQPPVRAFLLISTLKDKRGTRYELRENIEQFFTKFVDEGKATVRLKEPPVDICLSKAISSSLKGFLSAMRLAHRGCNVDTPVSTLTPVKTSEFENFKTKMVITSKKDYPLSKNFPYSLEHLQTSYCGLVRVDMRMLCLKSLRKLDLSHNHIKKLPATIGDLIHLQELNLNDNHLESFSVALCHSTLQKSLRSLDLSKNKIKALPVQFCQLQELKNLKLDDNELIQFPCKIGQLINLRFLSAARNKLPFLPSEFRNLSLEYLDLFGNTFEQPKVLPVIKLQAPLTLLESSARTILHNRIPYGSHIIPFHLCQDLDTAKICVCGRFCLNSFIQGTTTMNLHSVAHTVVLVDNLGGTEAPIISYFCSLGCYVNSSDMLK
